# According to the supplement of paper PMC8728848:
# This is one part of the list.
# B1: PX15642A-pgi-501-20-501 (Parabacteroides gingivalis) (protein)
# chain: CELDRDPEGKDFQQPYTSFVQTKQNRDGLYALLRNTENPRMHFYQELQSDMYCTTITDGNSLAPFVNWDLGILNDHGRADEDEVSGIAGYYFVYNRLNQQANAFVNNTEAALQNQVYKNSTEIANAKSFLAEGKVLQALAIWRLMDRFSFHESVTEVNSGAKDLGVILLKEYNPGYIGPRATKAQCYDYILSRLSEAIEVLPENRESVLYVSRDYAYALRARIYLALGEYGKAAADAKMVVDKYPLIGAADASEFENIYRSDANNPEIIFRGFASATLGSFTATTLNGAAPAGKDIKYNPSAVPFQWVVDLYENEDFRKSVYIAKVVKKDKGYLVNKFLEDKAYRDVQDKPNLKVGARYFSVAEVYLILVESALQTGDTPTAEKYLKALSKARGAEVSVVNMEALQAERTRELIGEGSRLRDMVRWSIPNNHDAFETQPGLEGFANTTPLKAQAPVGFYAYTWEFPQRDRQTNPQLIKNWPI
# Tests used:
# Experiment in all cases: glycan array binding signal (z-score within array); higher = stronger binding
# Settings in all cases: glycan notation: IUPAC condensed, linker removed
# [1] = molecular target: Gal(b1-3)GlcNAc(b1-6)[Gal(b1-3)]GalNAc
# How it was run: (§1)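 Arrays were curated from the Consortium for Functional Glycomics database, 3228 in total, and kept only where the protein sequence was available. Binding is expressed as a within-array Z-score. This score was averaged across arrays of the same protein sequence at different concentrations or buffers and across linkers, and negative values can be read as non-binding.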
# Gal(b1-3)GlcNAc6S = molecular target: Gal(b1-3)GlcNAc6S
# How it was run: as §1
# [2] = molecular target: Gal(b1-3)[Fuc(a1-4)]GlcNAc
# How it was run: as §1
# [3] = molecular target: Gal(b1-3)[Fuc(a1-4)]GlcNAc(b1-2)Man
# How it was run: as §1
# [4] = molecular target: Gal(b1-3)[Fuc(a1-4)]GlcNAc(b1-2)Man(a1-3)[Gal(b1-3)[Fuc(a1-4)]GlcNAc(b1-2)Man(a1-6)]Man(b1-4)GlcNAc(b1-4)[Fuc(a1-6)]GlcNAc
# How it was run: as §1
# [5] = molecular target: Gal(b1-3)[Fuc(a1-4)]GlcNAc(b1-3)Gal(b1-3)[Fuc(a1-4)]GlcNAc
# How it was run: as §1
# [6] = molecular target: Gal(b1-3)[Fuc(a1-4)]GlcNAc(b1-3)Gal(b1-4)[Fuc(a1-3)]GlcNAc
# How it was run: as §1
# [7] = molecular target: Gal(b1-3)[Fuc(a1-4)]GlcNAc(b1-6)GalNAc
# How it was run: as §1
# [8] = molecular target: Gal(b1-3)[GlcNAc(b1-6)]GalNAc
# How it was run: as §1
# [9] = molecular target: Gal(b1-3)[Neu5Ac(a2-6)]GalNAc
# How it was run: as §1
# [10] = molecular target: Gal(b1-3)[Neu5Ac(a2-6)]GlcNAc(b1-4)Gal(b1-4)Glc
# How it was run: as §1
# [11] = molecular target: Gal(b1-3)[Neu5Ac(b2-6)]GalNAc
# How it was run: as §1
# Gal(b1-4)Gal = molecular target: Gal(b1-4)Gal
# How it was run: as §1
# [12] = molecular target: Gal(b1-4)GalNAc(a1-3)[Fuc(a1-2)]Gal(b1-4)GlcNAc
# How it was run: as §1
# [13] = molecular target: Gal(b1-4)GalNAc(b1-3)[Fuc(a1-2)]Gal(b1-4)GlcNAc
# How it was run: as §1
# Gal(b1-4)Glc = molecular target: Gal(b1-4)Glc
# How it was run: as §1
# Gal(b1-4)Glc6S = molecular target: Gal(b1-4)Glc6S
# How it was run: as §1
# Gal(b1-4)GlcNAc = molecular target: Gal(b1-4)GlcNAc
# How it was run: as §1
# [14] = molecular target: Gal(b1-4)GlcNAc(a1-6)Gal(b1-4)GlcNAc
# How it was run: as §1
# Gal(b1-4)GlcNAc(b1-2)Man = molecular target: Gal(b1-4)GlcNAc(b1-2)Man
# How it was run: as §1
# [15] = molecular target: Gal(b1-4)GlcNAc(b1-2)Man(a1-3)Man(b1-4)GlcNAc(b1-4)GlcNAc
# How it was run: as §1
# [16] = molecular target: Gal(b1-4)GlcNAc(b1-2)Man(a1-3)[Gal(b1-4)GlcNAc(b1-2)Man(a1-6)]Man(b1-4)GlcNAc(b1-4)GlcNAc
# How it was run: as §1
# [17] = molecular target: Gal(b1-4)GlcNAc(b1-2)Man(a1-3)[Gal(b1-4)GlcNAc(b1-2)Man(a1-6)]Man(b1-4)GlcNAc(b1-4)[Fuc(a1-6)]GlcNAc
# How it was run: as §1
# [18] = molecular target: Gal(b1-4)GlcNAc(b1-2)Man(a1-3)[Gal(b1-4)GlcNAc(b1-2)Man(a1-6)][Gal(b1-4)GlcNAc(b1-4)]Man(b1-4)GlcNAc(b1-4)[Fuc(a1-6)]GlcNAc
# How it was run: as §1
# [19] = molecular target: Gal(b1-4)GlcNAc(b1-2)Man(a1-3)[Gal(b1-4)GlcNAc(b1-2)Man(a1-6)][GlcNAc(b1-4)]Man(b1-4)GlcNAc(b1-4)[Fuc(a1-6)]GlcNAc
# How it was run: as §1
# [20] = molecular target: Gal(b1-4)GlcNAc(b1-2)Man(a1-3)[GlcNAc(b1-2)Man(a1-6)]Man(b1-4)GlcNAc(b1-4)GlcNAc
# How it was run: as §1
# [21] = molecular target: Gal(b1-4)GlcNAc(b1-2)Man(a1-3)[GlcNAc(b1-4)][Gal(b1-4)GlcNAc(b1-2)Man(a1-6)]Man(b1-4)GlcNAc(b1-4)GlcNAc
# How it was run: as §1
# [22] = molecular target: Gal(b1-4)GlcNAc(b1-2)Man(a1-3)[Man(a1-6)]Man(b1-4)GlcNAc(b1-4)GlcNAc
# How it was run: as §1
# [23] = molecular target: Gal(b1-4)GlcNAc(b1-2)Man(a1-6)Man(b1-4)GlcNAc(b1-4)GlcNAc
# How it was run: as §1
# [24] = molecular target: Gal(b1-4)GlcNAc(b1-2)Man(a1-6)[GlcNAc(b1-2)Man(a1-3)]Man(b1-4)GlcNAc(b1-4)GlcNAc
# How it was run: as §1
# [25] = molecular target: Gal(b1-4)GlcNAc(b1-2)Man(a1-6)[Man(a1-3)]Man(b1-4)GlcNAc(b1-4)GlcNAc
# How it was run: as §1
# [26] = molecular target: Gal(b1-4)GlcNAc(b1-2)[Gal(b1-4)GlcNAc(b1-4)]Man(a1-3)[Gal(b1-4)GlcNAc(b1-2)Man(a1-6)]Man(b1-4)GlcNAc(b1-4)GlcNAc
# How it was run: as §1
# [27] = molecular target: Gal(b1-4)GlcNAc(b1-2)[Gal(b1-4)GlcNAc(b1-4)]Man(a1-3)[Gal(b1-4)GlcNAc(b1-2)[Gal(b1-4)GlcNAc(b1-6)]Man(a1-6)]Man(b1-4)GlcNAc(b1-4)GlcNAc
# How it was run: as §1
# [28] = molecular target: Gal(b1-4)GlcNAc(b1-2)[Gal(b1-4)GlcNAc(b1-4)]Man(a1-3)[GlcNAc(b1-4)][Gal(b1-4)GlcNAc(b1-2)Man(a1-6)]Man(b1-4)GlcNAc(b1-4)GlcNAc
# How it was run: as §1
# [29] = molecular target: Gal(b1-4)GlcNAc(b1-2)[Gal(b1-4)GlcNAc(b1-4)]Man(a1-3)[GlcNAc(b1-4)][Gal(b1-4)GlcNAc(b1-2)[Gal(b1-4)GlcNAc(b1-6)]Man(a1-6)]Man(b1-4)GlcNAc(b1-4)GlcNAc
# How it was run: as §1
# [30] = molecular target: Gal(b1-4)GlcNAc(b1-2)[Gal(b1-4)GlcNAc(b1-6)]Man(a1-6)[Gal(b1-4)GlcNAc(b1-2)Man(a1-3)]Man(b1-4)GlcNAc(b1-4)GlcNAc
# How it was run: as §1
# [31] = molecular target: Gal(b1-4)GlcNAc(b1-2)[Gal(b1-4)GlcNAc(b1-6)]Man(a1-6)[Gal(b1-4)GlcNAc(b1-2)Man(a1-3)]Man(b1-4)GlcNAc(b1-4)[Fuc(a1-6)]GlcNAc
# How it was run: as §1
binder,measurement,setting,value
B1,glycan array binding signal (z-score),[1],-0.113
same,glycan array binding signal (z-score),Gal(b1-3)GlcNAc6S,0.706
same,glycan array binding signal (z-score),[2],-0.298
same,glycan array binding signal (z-score),[3],-0.553
same,glycan array binding signal (z-score),[4],0.231
same,glycan array binding signal (z-score),[5],1.31
same,glycan array binding signal (z-score),[6],-0.586
same,glycan array binding signal (z-score),[7],0.53
same,glycan array binding signal (z-score),[8],-0.337
same,glycan array binding signal (z-score),[9],-0.778
same,glycan array binding signal (z-score),[10],-0.282
same,glycan array binding signal (z-score),[11],-0.258
same,glycan array binding signal (z-score),Gal(b1-4)Gal,0.332
same,glycan array binding signal (z-score),[12],-0.578
same,glycan array binding signal (z-score),[13],-0.308
same,glycan array binding signal (z-score),Gal(b1-4)Glc,-0.573
same,glycan array binding signal (z-score),Gal(b1-4)Glc6S,-0.008
same,glycan array binding signal (z-score),Gal(b1-4)GlcNAc,-0.294
same,glycan array binding signal (z-score),[14],1.28
same,glycan array binding signal (z-score),Gal(b1-4)GlcNAc(b1-2)Man,-0.551
same,glycan array binding signal (z-score),[15],0.396
same,glycan array binding signal (z-score),[16],1.65
same,glycan array binding signal (z-score),[17],0.993
same,glycan array binding signal (z-score),[18],0.917
same,glycan array binding signal (z-score),[19],0.025
same,glycan array binding signal (z-score),[20],0.359
same,glycan array binding signal (z-score),[21],-0.543
same,glycan array binding signal (z-score),[22],0.952
same,glycan array binding signal (z-score),[23],-0.174
same,glycan array binding signal (z-score),[24],-0.259
same,glycan array binding signal (z-score),[25],-0.027
same,glycan array binding signal (z-score),[26],0.107
same,glycan array binding signal (z-score),[27],0.733
same,glycan array binding signal (z-score),[28],-0.614
same,glycan array binding signal (z-score),[29],0.486
same,glycan array binding signal (z-score),[30],0.513
same,glycan array binding signal (z-score),[31],0.317

# Part of the list above, tab-delimited:
binder	measurement	setting	value
B1	glycan array binding signal (z-score)	[6]	-0.586
same	glycan array binding signal (z-score)	[9]	-0.778
same	glycan array binding signal (z-score)	[13]	-0.308
same	glycan array binding signal (z-score)	[21]	-0.543
same	glycan array binding signal (z-score)	[24]	-0.259
same	glycan array binding signal (z-score)	[28]	-0.614
same	glycan array binding signal (z-score)	[29]	0.486
